Experimental findings from article PMC3546041 are described below.

Test [1] addresses T1, GFP-fused MBD2 NH2-terminal domain (amino acids 1-152) (Sf9) (mouse) (UniProt Q9Z2E1).
T1 sequence: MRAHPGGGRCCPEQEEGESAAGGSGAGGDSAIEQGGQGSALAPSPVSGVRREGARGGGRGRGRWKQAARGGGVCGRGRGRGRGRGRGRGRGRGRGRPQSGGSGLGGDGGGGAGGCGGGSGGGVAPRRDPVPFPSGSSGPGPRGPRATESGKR
As to the kind of experiment: pull-down; YFP- or GFP-fused MeCP2 or MBD2 constructs immobilised on GBP-sepharose beads; RFP- or Cherry-fused proteins in solution; proteins extracted with 1 M NaCl lysis buffer; PBS plus 125 mM NaCl, 0.05% NP-40; Western blot with anti RFP; only the target purified. For orientation: Immunoblotting shows a protein as a band on a membrane.

Test [2] concerns the target GFP-fused MBD2 COOH-terminus (amino acids 153-414) (Sf9) (mouse) (UniProt Q9Z2E1). The test is described as above.
The target in test [3] is T2, GFP-fused MBD2 NTD (HEK 293) (mouse) (UniProt Q9Z2E1).
T2 sequence: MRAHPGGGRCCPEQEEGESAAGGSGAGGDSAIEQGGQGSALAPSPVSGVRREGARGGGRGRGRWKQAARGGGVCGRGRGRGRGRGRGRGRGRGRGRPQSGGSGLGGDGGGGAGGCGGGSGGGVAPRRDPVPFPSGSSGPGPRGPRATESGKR
As to the kind of experiment: co-IP; HEK293-EBNA cells co-expressing GFP- and RFP-tagged domains; lysis and GBP-bound beads in 200 mM NaCl; complexes washed with buffer containing 300 mM NaCl; Western blot with anti RFP.

The target in test [4] is T2, GFP-fused MBD2 NTD (HEK 293) (mouse). As to the kind of experiment: co-IP; HEK293-EBNA cells co-expressing GFP- and RFP-tagged domains; lysis, GBP-bound beads and washes in buffer with 200 mM NaCl; Western blot with anti RFP.

These are yes or no findings as the source states them, for the method shown. Binding seen in cells or lysates may run through a third protein. Some results given as binding are weak or reduced against the parent protein; the word gives no strength. Tags and fused reporters may be left off the sequences shown.

B1: RFP-fused MBD2 NH2-terminal domain (amino acids 1-152) (Sf9) (domain or fragment, UniProt Q9Z2E1 1-152)
chain: MRAHPGGGRCCPEQEEGESAAGGSGAGGDSAIEQGGQGSALAPSPVSGVRREGARGGGRGRGRWKQAARGGGVCGRGRGRGRGRGRGRGRGRGRGRPQSGGSGLGGDGGGGAGGCGGGSGGGVAPRRDPVPFPSGSSGPGPRGPRATESGKR
Regarding B1, the binding result in test [1] and in test [2] was “binds” each time.

B2: RFP-fused MBD2 NTD (HEK 293) (domain or fragment, UniProt Q9Z2E1 1-152)
chain: MRAHPGGGRCCPEQEEGESAAGGSGAGGDSAIEQGGQGSALAPSPVSGVRREGARGGGRGRGRWKQAARGGGVCGRGRGRGRGRGRGRGRGRGRGRPQSGGSGLGGDGGGGAGGCGGGSGGGVAPRRDPVPFPSGSSGPGPRGPRATESGKR
Regarding B2, the binding entry in test [3] and in test [4] was “binds” throughout.
